# Assay results reported in the supplement of paper PMC6411743.
# Chains of the proteins cited; added tags and fusions are not shown. Lines headed by an entry give the natural chain unless they say otherwise; changes in a name come on top.
# UniProt O60880: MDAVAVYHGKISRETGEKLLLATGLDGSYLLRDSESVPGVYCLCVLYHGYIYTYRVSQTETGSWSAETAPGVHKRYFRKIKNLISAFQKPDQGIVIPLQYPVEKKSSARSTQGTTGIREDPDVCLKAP
# UniProt O75489, whole entry: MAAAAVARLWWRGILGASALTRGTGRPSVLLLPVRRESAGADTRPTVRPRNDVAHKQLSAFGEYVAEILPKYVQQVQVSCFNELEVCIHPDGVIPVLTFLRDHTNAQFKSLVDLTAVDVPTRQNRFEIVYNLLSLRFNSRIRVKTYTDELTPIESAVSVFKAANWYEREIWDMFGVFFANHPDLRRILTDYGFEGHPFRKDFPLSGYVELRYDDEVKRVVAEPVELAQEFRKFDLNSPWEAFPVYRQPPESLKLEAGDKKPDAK
# UniProt O95197: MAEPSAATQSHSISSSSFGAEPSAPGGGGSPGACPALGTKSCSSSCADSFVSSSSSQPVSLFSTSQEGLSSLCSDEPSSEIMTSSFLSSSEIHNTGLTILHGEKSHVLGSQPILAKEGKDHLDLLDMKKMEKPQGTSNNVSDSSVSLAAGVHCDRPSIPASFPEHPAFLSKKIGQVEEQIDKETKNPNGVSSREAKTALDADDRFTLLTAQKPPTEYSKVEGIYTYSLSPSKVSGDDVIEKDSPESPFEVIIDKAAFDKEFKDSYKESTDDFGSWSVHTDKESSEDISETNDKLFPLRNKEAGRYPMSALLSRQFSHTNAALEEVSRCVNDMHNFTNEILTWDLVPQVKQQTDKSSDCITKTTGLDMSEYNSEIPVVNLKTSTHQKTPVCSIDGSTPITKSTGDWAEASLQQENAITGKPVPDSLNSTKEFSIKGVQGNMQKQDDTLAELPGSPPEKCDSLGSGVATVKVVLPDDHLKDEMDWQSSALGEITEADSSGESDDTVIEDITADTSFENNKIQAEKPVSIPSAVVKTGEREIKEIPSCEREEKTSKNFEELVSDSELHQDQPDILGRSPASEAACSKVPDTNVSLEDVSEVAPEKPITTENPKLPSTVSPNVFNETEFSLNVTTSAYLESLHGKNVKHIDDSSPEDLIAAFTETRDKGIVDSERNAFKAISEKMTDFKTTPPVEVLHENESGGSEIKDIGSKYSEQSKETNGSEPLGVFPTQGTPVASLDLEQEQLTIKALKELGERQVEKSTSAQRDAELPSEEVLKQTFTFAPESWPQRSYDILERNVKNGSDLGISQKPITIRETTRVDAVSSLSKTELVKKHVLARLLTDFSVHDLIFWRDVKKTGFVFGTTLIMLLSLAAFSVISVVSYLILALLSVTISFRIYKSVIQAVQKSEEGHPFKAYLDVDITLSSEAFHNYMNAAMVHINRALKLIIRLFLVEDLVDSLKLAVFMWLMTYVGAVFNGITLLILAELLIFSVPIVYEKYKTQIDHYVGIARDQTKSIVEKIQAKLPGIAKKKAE
# UniProt O60906: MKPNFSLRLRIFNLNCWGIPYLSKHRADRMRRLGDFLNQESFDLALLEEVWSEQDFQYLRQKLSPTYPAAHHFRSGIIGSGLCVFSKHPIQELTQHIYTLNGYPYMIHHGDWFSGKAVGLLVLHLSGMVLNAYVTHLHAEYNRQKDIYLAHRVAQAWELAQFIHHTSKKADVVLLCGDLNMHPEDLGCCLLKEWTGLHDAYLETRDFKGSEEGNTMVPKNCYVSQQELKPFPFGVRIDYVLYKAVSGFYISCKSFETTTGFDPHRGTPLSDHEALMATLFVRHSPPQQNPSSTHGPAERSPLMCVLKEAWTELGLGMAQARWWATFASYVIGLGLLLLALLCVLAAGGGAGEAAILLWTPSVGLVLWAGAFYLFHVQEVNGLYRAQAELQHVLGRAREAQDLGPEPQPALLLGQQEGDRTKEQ
# UniProt O75165, whole entry: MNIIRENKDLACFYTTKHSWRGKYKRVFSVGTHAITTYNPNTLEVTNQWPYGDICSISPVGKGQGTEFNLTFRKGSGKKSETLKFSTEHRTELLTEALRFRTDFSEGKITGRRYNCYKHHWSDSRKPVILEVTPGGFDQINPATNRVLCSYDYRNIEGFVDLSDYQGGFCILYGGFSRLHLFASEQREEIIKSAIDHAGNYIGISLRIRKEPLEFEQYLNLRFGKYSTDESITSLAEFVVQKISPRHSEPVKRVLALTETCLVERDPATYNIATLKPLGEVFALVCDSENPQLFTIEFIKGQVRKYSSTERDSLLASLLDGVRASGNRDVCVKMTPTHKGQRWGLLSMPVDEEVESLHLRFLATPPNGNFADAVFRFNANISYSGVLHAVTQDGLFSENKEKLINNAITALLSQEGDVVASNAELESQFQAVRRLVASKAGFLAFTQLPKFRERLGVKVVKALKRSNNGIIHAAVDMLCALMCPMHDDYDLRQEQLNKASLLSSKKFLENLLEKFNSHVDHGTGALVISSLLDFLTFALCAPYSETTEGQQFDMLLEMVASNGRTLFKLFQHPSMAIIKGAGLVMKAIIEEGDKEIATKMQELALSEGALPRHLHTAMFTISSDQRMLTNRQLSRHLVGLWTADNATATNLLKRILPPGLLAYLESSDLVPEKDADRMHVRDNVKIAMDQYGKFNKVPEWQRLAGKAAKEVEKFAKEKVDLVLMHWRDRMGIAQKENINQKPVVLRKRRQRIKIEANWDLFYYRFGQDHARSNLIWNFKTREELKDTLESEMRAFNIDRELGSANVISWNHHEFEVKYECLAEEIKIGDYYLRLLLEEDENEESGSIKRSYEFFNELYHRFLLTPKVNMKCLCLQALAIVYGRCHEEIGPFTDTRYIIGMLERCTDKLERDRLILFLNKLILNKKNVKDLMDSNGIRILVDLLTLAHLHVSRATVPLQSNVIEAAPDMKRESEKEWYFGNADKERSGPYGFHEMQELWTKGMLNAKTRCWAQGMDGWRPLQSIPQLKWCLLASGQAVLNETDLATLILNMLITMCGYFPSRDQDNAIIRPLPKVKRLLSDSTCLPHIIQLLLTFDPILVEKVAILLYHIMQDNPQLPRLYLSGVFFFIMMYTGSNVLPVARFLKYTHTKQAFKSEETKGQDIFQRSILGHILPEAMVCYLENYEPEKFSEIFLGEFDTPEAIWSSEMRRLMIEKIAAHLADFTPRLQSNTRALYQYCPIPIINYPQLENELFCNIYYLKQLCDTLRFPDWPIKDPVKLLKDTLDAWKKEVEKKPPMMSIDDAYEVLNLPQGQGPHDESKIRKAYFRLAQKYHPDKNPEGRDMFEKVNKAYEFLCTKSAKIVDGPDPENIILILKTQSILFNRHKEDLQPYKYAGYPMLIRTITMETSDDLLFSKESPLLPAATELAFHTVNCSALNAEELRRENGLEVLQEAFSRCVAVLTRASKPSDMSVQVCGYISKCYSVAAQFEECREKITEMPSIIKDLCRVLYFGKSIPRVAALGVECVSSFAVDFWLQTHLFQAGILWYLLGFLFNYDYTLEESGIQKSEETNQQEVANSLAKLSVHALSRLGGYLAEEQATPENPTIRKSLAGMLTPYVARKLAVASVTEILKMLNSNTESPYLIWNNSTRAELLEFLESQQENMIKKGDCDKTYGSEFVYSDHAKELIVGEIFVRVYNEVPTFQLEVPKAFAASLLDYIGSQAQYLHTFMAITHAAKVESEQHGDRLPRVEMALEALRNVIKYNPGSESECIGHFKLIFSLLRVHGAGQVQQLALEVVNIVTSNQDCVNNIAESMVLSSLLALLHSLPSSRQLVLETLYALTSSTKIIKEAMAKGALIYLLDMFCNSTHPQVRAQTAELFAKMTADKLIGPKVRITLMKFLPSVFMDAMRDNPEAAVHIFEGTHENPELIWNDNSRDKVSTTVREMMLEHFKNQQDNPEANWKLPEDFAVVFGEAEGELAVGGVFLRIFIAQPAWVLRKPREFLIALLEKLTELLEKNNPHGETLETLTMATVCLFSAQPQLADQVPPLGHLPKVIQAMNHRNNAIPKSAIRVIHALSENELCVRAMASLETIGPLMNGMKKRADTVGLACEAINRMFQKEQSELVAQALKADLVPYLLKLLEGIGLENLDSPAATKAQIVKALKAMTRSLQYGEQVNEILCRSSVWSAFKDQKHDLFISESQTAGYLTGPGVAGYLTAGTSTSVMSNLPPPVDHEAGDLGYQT
# UniProt O75533, whole entry: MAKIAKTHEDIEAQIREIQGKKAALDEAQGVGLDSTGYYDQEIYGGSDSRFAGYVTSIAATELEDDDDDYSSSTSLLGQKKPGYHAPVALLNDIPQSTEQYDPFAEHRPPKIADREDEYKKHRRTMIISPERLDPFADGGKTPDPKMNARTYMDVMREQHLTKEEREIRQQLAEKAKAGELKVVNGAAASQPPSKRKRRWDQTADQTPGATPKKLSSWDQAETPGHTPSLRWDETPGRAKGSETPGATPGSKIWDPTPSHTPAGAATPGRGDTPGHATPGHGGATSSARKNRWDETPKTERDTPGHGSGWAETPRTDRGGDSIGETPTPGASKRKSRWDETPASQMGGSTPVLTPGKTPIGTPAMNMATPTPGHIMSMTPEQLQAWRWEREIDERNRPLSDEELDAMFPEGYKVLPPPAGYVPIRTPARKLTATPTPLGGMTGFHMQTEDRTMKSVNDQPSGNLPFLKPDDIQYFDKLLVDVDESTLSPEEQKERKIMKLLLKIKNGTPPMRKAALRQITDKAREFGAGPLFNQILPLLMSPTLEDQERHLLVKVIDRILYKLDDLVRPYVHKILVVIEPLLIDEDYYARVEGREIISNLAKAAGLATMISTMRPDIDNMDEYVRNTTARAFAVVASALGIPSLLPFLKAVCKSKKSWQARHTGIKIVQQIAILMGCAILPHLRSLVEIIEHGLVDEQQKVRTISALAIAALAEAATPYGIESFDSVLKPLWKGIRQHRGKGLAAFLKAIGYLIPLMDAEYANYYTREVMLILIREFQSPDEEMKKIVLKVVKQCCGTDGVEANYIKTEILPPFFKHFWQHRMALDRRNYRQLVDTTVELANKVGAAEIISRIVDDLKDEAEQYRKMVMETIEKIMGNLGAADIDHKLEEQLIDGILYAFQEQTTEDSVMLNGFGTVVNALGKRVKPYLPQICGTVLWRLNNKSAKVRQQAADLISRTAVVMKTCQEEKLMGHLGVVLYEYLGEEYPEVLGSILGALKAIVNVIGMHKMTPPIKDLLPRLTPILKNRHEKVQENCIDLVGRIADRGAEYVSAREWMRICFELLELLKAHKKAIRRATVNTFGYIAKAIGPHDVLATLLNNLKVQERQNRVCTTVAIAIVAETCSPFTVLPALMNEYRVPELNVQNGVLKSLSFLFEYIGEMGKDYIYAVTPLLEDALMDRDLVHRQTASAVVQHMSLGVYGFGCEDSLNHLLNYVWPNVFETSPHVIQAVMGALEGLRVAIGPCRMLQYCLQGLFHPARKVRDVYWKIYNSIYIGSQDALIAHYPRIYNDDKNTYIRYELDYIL
# UniProt O75582, whole entry, looked up: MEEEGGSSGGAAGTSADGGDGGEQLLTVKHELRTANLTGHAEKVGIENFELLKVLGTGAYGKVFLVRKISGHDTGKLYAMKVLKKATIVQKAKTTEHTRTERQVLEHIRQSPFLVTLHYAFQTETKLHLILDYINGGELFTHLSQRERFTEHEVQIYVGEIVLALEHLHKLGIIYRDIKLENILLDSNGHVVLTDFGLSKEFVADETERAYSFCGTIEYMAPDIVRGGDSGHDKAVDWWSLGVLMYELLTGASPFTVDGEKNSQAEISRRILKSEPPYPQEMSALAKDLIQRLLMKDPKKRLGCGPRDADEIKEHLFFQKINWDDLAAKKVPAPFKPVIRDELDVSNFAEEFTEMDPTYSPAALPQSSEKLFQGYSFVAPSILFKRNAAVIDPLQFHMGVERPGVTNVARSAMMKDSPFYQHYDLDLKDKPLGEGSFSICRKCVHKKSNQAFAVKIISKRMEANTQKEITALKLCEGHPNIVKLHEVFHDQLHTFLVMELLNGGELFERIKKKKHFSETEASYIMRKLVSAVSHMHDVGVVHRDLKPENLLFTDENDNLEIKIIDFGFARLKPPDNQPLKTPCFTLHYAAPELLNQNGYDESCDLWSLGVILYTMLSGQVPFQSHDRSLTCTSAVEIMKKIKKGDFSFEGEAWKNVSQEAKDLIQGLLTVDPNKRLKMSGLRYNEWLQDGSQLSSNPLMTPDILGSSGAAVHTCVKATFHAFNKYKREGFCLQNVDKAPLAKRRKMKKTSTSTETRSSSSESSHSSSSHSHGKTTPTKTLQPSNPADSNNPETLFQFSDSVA
# UniProt O95551: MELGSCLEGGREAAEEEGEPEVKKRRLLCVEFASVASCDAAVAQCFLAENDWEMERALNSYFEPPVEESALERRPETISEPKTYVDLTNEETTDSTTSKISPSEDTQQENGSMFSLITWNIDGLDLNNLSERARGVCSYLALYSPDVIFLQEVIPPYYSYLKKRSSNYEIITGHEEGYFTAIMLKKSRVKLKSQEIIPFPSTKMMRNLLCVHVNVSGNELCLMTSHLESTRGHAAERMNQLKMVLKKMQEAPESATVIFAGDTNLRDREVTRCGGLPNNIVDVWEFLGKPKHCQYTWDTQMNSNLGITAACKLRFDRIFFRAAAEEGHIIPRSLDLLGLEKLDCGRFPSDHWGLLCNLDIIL
# ± gives the standard deviation of the averaged measurements. The list shows a part of the results, in another mix than the full data. Most entries show no effect beyond the scatter of the controls.
# Compound: Nc1ncnc2c1ncn2[C@@H]1O[C@H](COP(=O)(O)OP(=O)(O)NP(=O)(O)O)[C@@H](O)[C@H]1O [adenylyl imidodiphosphate]
# Assay: NP40-soluble protein abundance relative to vehicle (solubility fold change) (ratio); higher = more soluble protein in presence of AMP-PNP
# Conditions: concentration: 0.1mM
# Procedure, shortened: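 Jurkat crude lysate (Dounce-homogenised) was treated with eight concentrations from 0.1 to 10 mM for 10 min at room temperature, then 3 min at 37 °C. It was solubilised with 0.8% NP40 and benzonase (60 min, 4 °C) and ultracentrifuged, and the supernatant was TMT-labelled for LC-MS/MS. Intensities were vsn-normalised, and the value is the fold change against the NP40-processed vehicle per replicate, from three independent experiments.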
row,Target,NP40-soluble protein abundance
1,UniProt O60880 and related entries,0.893 ± 0.12
2,WDHD1 (UniProt O75717),0.986 ± 0.02
3,UniProt O94864 and related entries,0.96529 ± 0.00021
4,UniProt O75143 and related entries,1.01 ± 0.03
5,NDUFS3 (UniProt O75489),1.03 ± 0.035
6,CCNT1 (UniProt O60563),1.01 ± 0.043
7,TACC1 (UniProt O75410),0.991 ± 0.018
8,UniProt O95197 and related entries,0.959 ± 0.061
9,IDH1 (UniProt O75874),0.981 ± 0.021
10,RP2 (UniProt O75695),0.994 ± 0.042
11,SMPD2 (UniProt O60906),0.981 ± 0.032
12,UniProt O60762 and related entries,1.07 ± 0.03
13,AQR (UniProt O60306),1.08 ± 0.022
14,UniProt O94768,1.08 ± 0.0088
15,CDC123 (UniProt O75794),1.06 ± 0.05
16,SNUPN (UniProt O95149),1.01 ± 0.027
17,PPM1B (UniProt O75688),0.995 ± 0.031
18,UniProt O75925 and related entries,1.06 ± 0.075
19,UniProt O75528 and related entries,1 ± 0.015

row,Target,NP40-soluble protein abundance
1,UniProt O95644 and related entries,1.01 ± 0.015
2,UniProt O60313-2|E5KLJ5,0.987 ± 0.0098
3,DNAJC13 (UniProt O75165),1.01 ± 0.032
4,UniProt O75787 and related entries,0.983 ± 0.058
5,HEXIM1 (UniProt O94992),1.013 ± 0.0096
6,UniProt O94842 and related entries,1.03 ± 0.048
7,XYLB (UniProt O75191),0.9914 ± 0.0068
8,UniProt O94804,0.968 ± 0.037
9,CLPX (UniProt O76031),0.977 ± 0.041
10,SF3B1 (UniProt O75533),1.01 ± 0.012
11,UniProt O75582 and related entries,1 ± 0.041
12,SNX2 (UniProt O60749),0.973 ± 0.022
13,UniProt O75592 and related entries,1.03 ± 0.024
14,UniProt O94985-2,1.01 ± 0.047
15,UniProt O95551,0.978 ± 0.014
16,UniProt O95163,1 ± 0.032
17,KPNA6 (UniProt O60684),1.005 ± 0.0051
18,FAM20B (UniProt O75063),1 ± 0.034
19,TMEM63A (UniProt O94886),1.01 ± 0.018

# Same assay, conditions: concentration: 0.5mM
row,Target,NP40-soluble protein abundance
1,UniProt O60880 and related entries,0.84 ± 0.046
2,WDHD1 (UniProt O75717),0.982 ± 0.02
3,UniProt O94864 and related entries,1.01 ± 0.055
4,UniProt O75143 and related entries,0.999 ± 0.037
5,NDUFS3 (UniProt O75489),1.01 ± 0.046
6,CCNT1 (UniProt O60563),1.08 ± 0.052
7,TACC1 (UniProt O75410),0.981 ± 0.041
8,UniProt O95197 and related entries,1.02 ± 0.059
9,IDH1 (UniProt O75874),0.968 ± 0.036
10,RP2 (UniProt O75695),0.962 ± 0.036
11,SMPD2 (UniProt O60906),0.985 ± 0.021
12,UniProt O60762 and related entries,0.978 ± 0.053
13,AQR (UniProt O60306),0.97 ± 0.13
14,UniProt O94768,1.08 ± 0.035
15,CDC123 (UniProt O75794),1.03 ± 0.061
16,SNUPN (UniProt O95149),0.97 ± 0.054
17,PPM1B (UniProt O75688),0.993 ± 0.013
18,UniProt O75925 and related entries,1.02 ± 0.014
19,UniProt O75528 and related entries,1.01 ± 0.034

row,Target,NP40-soluble protein abundance
1,UniProt O95644 and related entries,0.983 ± 0.016
2,UniProt O60313-2|E5KLJ5,0.9961 ± 0.0067
3,DNAJC13 (UniProt O75165),1.01 ± 0.062
4,UniProt O75787 and related entries,1.03 ± 0.064
5,HEXIM1 (UniProt O94992),0.993 ± 0.022
6,UniProt O94842 and related entries,1.02 ± 0.053
7,XYLB (UniProt O75191),0.959 ± 0.013
8,UniProt O94804,0.98 ± 0.033
9,CLPX (UniProt O76031),0.969 ± 0.042
10,SF3B1 (UniProt O75533),1.01 ± 0.016
11,UniProt O75582 and related entries,1.01 ± 0.011
12,SNX2 (UniProt O60749),0.9865 ± 0.0061
13,UniProt O75592 and related entries,0.999 ± 0.019
14,UniProt O94985-2,1.02 ± 0.029
15,UniProt O95551,1.01 ± 0.025
16,UniProt O95163,0.983 ± 0.082
17,KPNA6 (UniProt O60684),0.994 ± 0.014
18,FAM20B (UniProt O75063),0.999 ± 0.026
19,TMEM63A (UniProt O94886),0.964 ± 0.043
